Measurements from the supplement of paper PMC3334620.
In all, about 33,000 sequences were measured (“E-score (-0.5 to 0.5)”: median about -0.0059, highest 2% from about 0.26 on). The list shows a part of the results.

The sequences below were run against T1, Cin5 (UniProt P40917) (assay: PBM E-score (8-mer binding enrichment) (E-score (-0.5 to 0.5)); higher = stronger / more preferred TF binding). Settings: protein concentration: 100 nM; construct: GST-full length.
T1 sequence: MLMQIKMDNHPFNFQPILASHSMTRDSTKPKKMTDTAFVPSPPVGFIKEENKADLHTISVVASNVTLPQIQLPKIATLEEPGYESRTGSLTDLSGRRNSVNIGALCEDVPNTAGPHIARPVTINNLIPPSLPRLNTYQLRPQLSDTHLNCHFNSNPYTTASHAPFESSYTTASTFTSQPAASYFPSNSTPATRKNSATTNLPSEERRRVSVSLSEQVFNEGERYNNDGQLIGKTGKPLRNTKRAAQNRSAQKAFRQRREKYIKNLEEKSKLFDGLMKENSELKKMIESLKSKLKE
How it was run: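 Each ungapped eight-base word and its reverse complement, pooled, received an E-score from the Universal PBM Analysis Suite. Underlying scans, normalised with masliner, recorded fluorescent anti-GST bound to GST-tagged yeast transcription factors. These were applied at about 100-200 nM to universal all-10-mer Agilent arrays double-stranded by primer extension.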
For CTCGCAGC, the “PBM E-score” value was -0.151. For CGACATAA, the “PBM E-score” value was 0.173. For AGCTATAC, the “PBM E-score” value was -0.037. ACCGATGG was tested, and the “PBM E-score” value was -0.0425. GAAGTTGC was tested, and the “PBM E-score” value was -0.192. ACGTGTTG was tested, and the “PBM E-score” value was 0.0357. For CGTCCCAG, the “PBM E-score” value was -0.0535. GTAGGCCA was tested, and the “PBM E-score” value was -0.026. AGATGCTC was tested, and the “PBM E-score” value was 0.0393. In the case of CAGTGGCG, the “PBM E-score” value is reported as -0.0501. With ATGGCTCA the “PBM E-score” value was -0.0692. AATGTCCT was tested, and the “PBM E-score” value was -0.12. ACCTGCGG was tested, and the “PBM E-score” value was -0.137. CACGATCA was tested, and the “PBM E-score” value was 0.164. With CGCATGCC the “PBM E-score” value was 0.11. For AGGTACTC, the “PBM E-score” value was 0.027. AGCTGAAA was tested, and the “PBM E-score” value was 0.13. AGGACTCA was tested, and the “PBM E-score” value was -0.111. AACCTGAC was tested, and the “PBM E-score” value was 0.131. For AGACCTCA, the “PBM E-score” value was -0.122. CCCAACGA was tested, and the “PBM E-score” value was 0.0456. With ACCTTAGT the “PBM E-score” value was -0.117. GACGACTC was tested, and the “PBM E-score” value was -0.23. TAAGCAGA was tested, and the “PBM E-score” value was 0.306. With CCAACGCA the “PBM E-score” value was 0.0408. ACTCGTGC was tested, and the “PBM E-score” value was -0.0445. For GAAGTTTA, the “PBM E-score” value was -0.0162. AGTCGGCG was tested, and the “PBM E-score” value was 0.00557. With GAGGGATC the “PBM E-score” value was -0.245. In the case of GGTCAAAA, the “PBM E-score” value is reported as 0.0143. In the case of CCCAGGGC, the “PBM E-score” value is reported as -0.403. With CATGGCTC the “PBM E-score” value was -0.108. CATGTGAA was tested, and the “PBM E-score” value was -0.0272. CCAATGTC was tested, and the “PBM E-score” value was -0.118. In the case of ACCGGACC, the “PBM E-score” value is reported as -0.00102. With AACAGGAT the “PBM E-score” value was -0.0242. With AAAAGGAA the “PBM E-score” value was 0.0198. For GGGCCAAC, the “PBM E-score” value was -0.127. CTTTGGCA was tested, and the “PBM E-score” value was -0.224. With GACTCTGC the “PBM E-score” value was -0.0254. In the case of GGAATGTA, the “PBM E-score” value is reported as 0.133. For CTACCTAA, the “PBM E-score” value was 0.183. With AGCTGGAC the “PBM E-score” value was -0.161. In the case of AAAACTAC, the “PBM E-score” value is reported as 0.175. With ACCGACCT the “PBM E-score” value was -0.109. In the case of CCCTAGTA, the “PBM E-score” value is reported as -0.0829. With CTCCACGC the “PBM E-score” value was -0.155. CATGGTGA was tested, and the “PBM E-score” value was -0.0935. With GCGTCCCC the “PBM E-score” value was -0.154. For CGCTCGAG, the “PBM E-score” value was 0.0897. With AGGGTGGC the “PBM E-score” value was -0.0544. For CTACTCCA, the “PBM E-score” value was -0.00733. In the case of GACTGAGA, the “PBM E-score” value is reported as -0.11. With ACTCGCCT the “PBM E-score” value was -0.0239. With GCTACTTA the “PBM E-score” value was -0.022. ACTAACGG was tested, and the “PBM E-score” value was -0.077. For ATGGCGTA, the “PBM E-score” value was 0.0316. GATAACAA was tested, and the “PBM E-score” value was 0.1. For GAAGACTA, the “PBM E-score” value was -0.0343. For GATGGCCC, the “PBM E-score” value was -0.136. For ACTCTACA, the “PBM E-score” value was -0.0734. For AGCACGCT, the “PBM E-score” value was -0.109. For CACTCCGA, the “PBM E-score” value was -0.129. In the case of TCCATGCA, the “PBM E-score” value is reported as 0.0909. For AAAGGTCG, the “PBM E-score” value was -0.085. For CTTACGTC, the “PBM E-score” value was 0.196. TCATTAAA was tested, and the “PBM E-score” value was 0.353. In the case of CTTAGTAA, the “PBM E-score” value is reported as 0.392. In the case of GTTATGGA, the “PBM E-score” value is reported as 0.127. TCTTAAAA was tested, and the “PBM E-score” value was 0.0576. For ACTGTAGG, the “PBM E-score” value was 0.0639. ACGAAGGA was tested, and the “PBM E-score” value was 0.00843. GGACGCGA was tested, and the “PBM E-score” value was -0.00533. In the case of AGCTGTAT, the “PBM E-score” value is reported as -0.0782. In the case of ACCTTACC, the “PBM E-score” value is reported as 0.112. In the case of CCGCTAGC, the “PBM E-score” value is reported as -0.256. TAGCAACA was tested, and the “PBM E-score” value was 0.128. With CGAGTTTC the “PBM E-score” value was 0.107. For AGTGGTTG, the “PBM E-score” value was 0.0814. With ACGGCGTG the “PBM E-score” value was 0.0473. For GAAGGACC, the “PBM E-score” value was -0.211. For GAATAGCC, the “PBM E-score” value was -0.153. AACAGCGA was tested, and the “PBM E-score” value was -0.158. For ATGAACAA, the “PBM E-score” value was 0.165. GAGGCTAC was tested, and the “PBM E-score” value was -0.261. In the case of AATAGGCA, the “PBM E-score” value is reported as 0.212. CGAATGTC was tested, and the “PBM E-score” value was 0.132. For AGTGCTTG, the “PBM E-score” value was -0.0474. For CTCTCCTA, the “PBM E-score” value was -0.0561. AACATACG was tested, and the “PBM E-score” value was 0.171. For ATTTGCCG, the “PBM E-score” value was 0.0194. For AATGCCCG, the “PBM E-score” value was -0.122. AAGCACCA was tested, and the “PBM E-score” value was -0.0995. With ACCAATAG the “PBM E-score” value was -0.123. In the case of CCTCTGCC, the “PBM E-score” value is reported as -0.293. CACTGGAA was tested, and the “PBM E-score” value was -0.0573. For ATTCTTTC, the “PBM E-score” value was 0.111. With GAGCGAGA the “PBM E-score” value was 0.166. AAGCTCGT was tested, and the “PBM E-score” value was -0.0702. GACAAGCA was tested, and the “PBM E-score” value was -0.191. ACTGGAAA was tested, and the “PBM E-score” value was 0.0219. With GGCCTGAC the “PBM E-score” value was -0.102. For ACATTAGG, the “PBM E-score” value was -0.0945. In the case of CTTGACAA, the “PBM E-score” value is reported as -0.0275. GAGGCGAA was tested, and the “PBM E-score” value was -0.0517. In the case of CGAGGGTC, the “PBM E-score” value is reported as -0.429. For ATGTGGGA, the “PBM E-score” value was 0.00338. With AATTTGCG the “PBM E-score” value was 0.0871. For GCTGTACA, the “PBM E-score” value was -0.137. GAACATTC was tested, and the “PBM E-score” value was 0.0621. In the case of ACAGAAGT, the “PBM E-score” value is reported as -0.0924. For ATCGATCA, the “PBM E-score” value was 0.13. For TCACCTGA, the “PBM E-score” value was -0.164. GCCAGCCC was tested, and the “PBM E-score” value was -0.138. In the case of CCGTAAAC, the “PBM E-score” value is reported as 0.072. With CCATGGAC the “PBM E-score” value was -0.0893. In the case of AGGCGACC, the “PBM E-score” value is reported as -0.245. In the case of GATCATCA, the “PBM E-score” value is reported as -0.0379. For ACGCCTCT, the “PBM E-score” value was -0.0461. In the case of CGCCGATA, the “PBM E-score” value is reported as -0.106. With ATCGCGCG the “PBM E-score” value was 0.19. In the case of ACCGAAGC, the “PBM E-score” value is reported as -0.122. With ACGAAGGC the “PBM E-score” value was -0.196. In the case of CGAGCCTC, the “PBM E-score” value is reported as -0.193. In the case of CCGCAGGA, the “PBM E-score” value is reported as -0.121. For CGTCTTGA, the “PBM E-score” value was -0.0711. With AACAGAAA the “PBM E-score” value was 0.155. In the case of ACGATGGC, the “PBM E-score” value is reported as 0.0358. In the case of GTACAACA, the “PBM E-score” value is reported as 0.182. In the case of GTACACAA, the “PBM E-score” value is reported as 0.0667. GCAGGAAC was tested, and the “PBM E-score” value was -0.0698. In the case of CTATGACA, the “PBM E-score” value is reported as 0.061. CATGCCGG was tested, and the “PBM E-score” value was 0.106. ATACATGC was tested, and the “PBM E-score” value was 0.0658. With CGCGTTCA the “PBM E-score” value was 0.181. In the case of CCATTATA, the “PBM E-score” value is reported as 0.199. In the case of ATGGTTTA, the “PBM E-score” value is reported as 0.0993. CTCGTTGC was tested, and the “PBM E-score” value was 0.157. With TACTGGGA the “PBM E-score” value was 0.0553. TGTGTTAA was tested, and the “PBM E-score” value was 0.15. For ACCCGAGG, the “PBM E-score” value was -0.204. AGCGAGGG was tested, and the “PBM E-score” value was -0.25. In the case of AGTGCGAC, the “PBM E-score” value is reported as -0.0654. For CGAAAGAA, the “PBM E-score” value was 0.154. With TACATTAA the “PBM E-score” value was 0.262. In the case of AGATTTAG, the “PBM E-score” value is reported as 0.0923. For CTCTTGTC, the “PBM E-score” value was -0.0756. For ATGGCCAA, the “PBM E-score” value was -0.0287. With GTGTAATA the “PBM E-score” value was 0.193. GCGGGCCA was tested, and the “PBM E-score” value was -0.191. In the case of ATCAAAGG, the “PBM E-score” value is reported as 0.133. In the case of ATGAGACC, the “PBM E-score” value is reported as 0.063. With CAAGGGCA the “PBM E-score” value was -0.25. ACGCCATC was tested, and the “PBM E-score” value was -0.0126. In the case of CCACCGAA, the “PBM E-score” value is reported as -0.048. With ATTCATGA the “PBM E-score” value was -0.00925. ACATGGTA was tested, and the “PBM E-score” value was 0.0528. For AATTATCC, the “PBM E-score” value was 0.133. For CTAAGAAG, the “PBM E-score” value was 0.00271. In the case of CAAACCCA, the “PBM E-score” value is reported as 0.184. With GAGCGACC the “PBM E-score” value was -0.203. In the case of CACTCCCG, the “PBM E-score” value is reported as -0.0671. CGGACAAG was tested, and the “PBM E-score” value was 0.0785. With AGTAAATC the “PBM E-score” value was 0.171. GGATAAGA was tested, and the “PBM E-score” value was 0.115. In the case of AACACGCC, the “PBM E-score” value is reported as -0.00401. For AAGATTGA, the “PBM E-score” value was 0.205. In the case of GAAATGTC, the “PBM E-score” value is reported as 0.0142. GAATAGTA was tested, and the “PBM E-score” value was 0.219. With CGTATCCA the “PBM E-score” value was -0.00233. In the case of ACGGACTC, the “PBM E-score” value is reported as -0.143. With GCAACCCC the “PBM E-score” value was -0.143.
